Results are given in words; binding and its absence hold for the method and conditions named. Binding seen in cells or lysates may run through a third protein. Some entries that bind do so weakly or less than the wild type.
What was measured:
[1] = molecular target: PRMT5, endogenous in SW620-L1 cells (human (endogenous in SW620-L1)) (UniProt O14744); test: co-IP
Flag-PRMT5 (human) = Flag-PRMT5 (human) (UniProt O14744); test: co-IP

The chains behind the UniProt entries cited, without tags or fusion partners.
UniProt P31749: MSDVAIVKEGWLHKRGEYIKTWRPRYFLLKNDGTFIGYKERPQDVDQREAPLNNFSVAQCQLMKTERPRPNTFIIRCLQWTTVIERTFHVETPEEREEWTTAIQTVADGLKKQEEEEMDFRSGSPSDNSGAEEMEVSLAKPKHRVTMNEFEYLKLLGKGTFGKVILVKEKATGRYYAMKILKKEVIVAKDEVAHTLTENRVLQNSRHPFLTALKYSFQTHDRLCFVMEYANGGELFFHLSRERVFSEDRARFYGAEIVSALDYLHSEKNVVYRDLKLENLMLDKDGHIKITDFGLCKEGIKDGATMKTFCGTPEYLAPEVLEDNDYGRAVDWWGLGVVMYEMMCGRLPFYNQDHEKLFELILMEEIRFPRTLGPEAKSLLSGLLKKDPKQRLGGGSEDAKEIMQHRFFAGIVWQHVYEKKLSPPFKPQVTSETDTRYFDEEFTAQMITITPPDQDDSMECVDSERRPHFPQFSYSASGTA

Row | binding [1] | binding (Flag-PRMT5 (human)) | Substance
1 | binds |  | AKT1, endogenous in SW620-L1 cells (from UniProt P31749 1-480) (enzyme)
2 |  | no binding | Myc-Rheb (from UniProt Q15382 1-184)
